In publication PMC12226361:
No constants are given. Whether binding was seen depends on the method and setting. In cells and extracts the contact can be indirect. Here binding means that the protein was enriched with, or labelled near, the bait; the list need not be complete. For part of these data: Sequences can lack the tags named with a protein.

Sequences of proteins named here, by UniProt entry; tags and fusion partners are left off.
UniProt Q7Z6Z7: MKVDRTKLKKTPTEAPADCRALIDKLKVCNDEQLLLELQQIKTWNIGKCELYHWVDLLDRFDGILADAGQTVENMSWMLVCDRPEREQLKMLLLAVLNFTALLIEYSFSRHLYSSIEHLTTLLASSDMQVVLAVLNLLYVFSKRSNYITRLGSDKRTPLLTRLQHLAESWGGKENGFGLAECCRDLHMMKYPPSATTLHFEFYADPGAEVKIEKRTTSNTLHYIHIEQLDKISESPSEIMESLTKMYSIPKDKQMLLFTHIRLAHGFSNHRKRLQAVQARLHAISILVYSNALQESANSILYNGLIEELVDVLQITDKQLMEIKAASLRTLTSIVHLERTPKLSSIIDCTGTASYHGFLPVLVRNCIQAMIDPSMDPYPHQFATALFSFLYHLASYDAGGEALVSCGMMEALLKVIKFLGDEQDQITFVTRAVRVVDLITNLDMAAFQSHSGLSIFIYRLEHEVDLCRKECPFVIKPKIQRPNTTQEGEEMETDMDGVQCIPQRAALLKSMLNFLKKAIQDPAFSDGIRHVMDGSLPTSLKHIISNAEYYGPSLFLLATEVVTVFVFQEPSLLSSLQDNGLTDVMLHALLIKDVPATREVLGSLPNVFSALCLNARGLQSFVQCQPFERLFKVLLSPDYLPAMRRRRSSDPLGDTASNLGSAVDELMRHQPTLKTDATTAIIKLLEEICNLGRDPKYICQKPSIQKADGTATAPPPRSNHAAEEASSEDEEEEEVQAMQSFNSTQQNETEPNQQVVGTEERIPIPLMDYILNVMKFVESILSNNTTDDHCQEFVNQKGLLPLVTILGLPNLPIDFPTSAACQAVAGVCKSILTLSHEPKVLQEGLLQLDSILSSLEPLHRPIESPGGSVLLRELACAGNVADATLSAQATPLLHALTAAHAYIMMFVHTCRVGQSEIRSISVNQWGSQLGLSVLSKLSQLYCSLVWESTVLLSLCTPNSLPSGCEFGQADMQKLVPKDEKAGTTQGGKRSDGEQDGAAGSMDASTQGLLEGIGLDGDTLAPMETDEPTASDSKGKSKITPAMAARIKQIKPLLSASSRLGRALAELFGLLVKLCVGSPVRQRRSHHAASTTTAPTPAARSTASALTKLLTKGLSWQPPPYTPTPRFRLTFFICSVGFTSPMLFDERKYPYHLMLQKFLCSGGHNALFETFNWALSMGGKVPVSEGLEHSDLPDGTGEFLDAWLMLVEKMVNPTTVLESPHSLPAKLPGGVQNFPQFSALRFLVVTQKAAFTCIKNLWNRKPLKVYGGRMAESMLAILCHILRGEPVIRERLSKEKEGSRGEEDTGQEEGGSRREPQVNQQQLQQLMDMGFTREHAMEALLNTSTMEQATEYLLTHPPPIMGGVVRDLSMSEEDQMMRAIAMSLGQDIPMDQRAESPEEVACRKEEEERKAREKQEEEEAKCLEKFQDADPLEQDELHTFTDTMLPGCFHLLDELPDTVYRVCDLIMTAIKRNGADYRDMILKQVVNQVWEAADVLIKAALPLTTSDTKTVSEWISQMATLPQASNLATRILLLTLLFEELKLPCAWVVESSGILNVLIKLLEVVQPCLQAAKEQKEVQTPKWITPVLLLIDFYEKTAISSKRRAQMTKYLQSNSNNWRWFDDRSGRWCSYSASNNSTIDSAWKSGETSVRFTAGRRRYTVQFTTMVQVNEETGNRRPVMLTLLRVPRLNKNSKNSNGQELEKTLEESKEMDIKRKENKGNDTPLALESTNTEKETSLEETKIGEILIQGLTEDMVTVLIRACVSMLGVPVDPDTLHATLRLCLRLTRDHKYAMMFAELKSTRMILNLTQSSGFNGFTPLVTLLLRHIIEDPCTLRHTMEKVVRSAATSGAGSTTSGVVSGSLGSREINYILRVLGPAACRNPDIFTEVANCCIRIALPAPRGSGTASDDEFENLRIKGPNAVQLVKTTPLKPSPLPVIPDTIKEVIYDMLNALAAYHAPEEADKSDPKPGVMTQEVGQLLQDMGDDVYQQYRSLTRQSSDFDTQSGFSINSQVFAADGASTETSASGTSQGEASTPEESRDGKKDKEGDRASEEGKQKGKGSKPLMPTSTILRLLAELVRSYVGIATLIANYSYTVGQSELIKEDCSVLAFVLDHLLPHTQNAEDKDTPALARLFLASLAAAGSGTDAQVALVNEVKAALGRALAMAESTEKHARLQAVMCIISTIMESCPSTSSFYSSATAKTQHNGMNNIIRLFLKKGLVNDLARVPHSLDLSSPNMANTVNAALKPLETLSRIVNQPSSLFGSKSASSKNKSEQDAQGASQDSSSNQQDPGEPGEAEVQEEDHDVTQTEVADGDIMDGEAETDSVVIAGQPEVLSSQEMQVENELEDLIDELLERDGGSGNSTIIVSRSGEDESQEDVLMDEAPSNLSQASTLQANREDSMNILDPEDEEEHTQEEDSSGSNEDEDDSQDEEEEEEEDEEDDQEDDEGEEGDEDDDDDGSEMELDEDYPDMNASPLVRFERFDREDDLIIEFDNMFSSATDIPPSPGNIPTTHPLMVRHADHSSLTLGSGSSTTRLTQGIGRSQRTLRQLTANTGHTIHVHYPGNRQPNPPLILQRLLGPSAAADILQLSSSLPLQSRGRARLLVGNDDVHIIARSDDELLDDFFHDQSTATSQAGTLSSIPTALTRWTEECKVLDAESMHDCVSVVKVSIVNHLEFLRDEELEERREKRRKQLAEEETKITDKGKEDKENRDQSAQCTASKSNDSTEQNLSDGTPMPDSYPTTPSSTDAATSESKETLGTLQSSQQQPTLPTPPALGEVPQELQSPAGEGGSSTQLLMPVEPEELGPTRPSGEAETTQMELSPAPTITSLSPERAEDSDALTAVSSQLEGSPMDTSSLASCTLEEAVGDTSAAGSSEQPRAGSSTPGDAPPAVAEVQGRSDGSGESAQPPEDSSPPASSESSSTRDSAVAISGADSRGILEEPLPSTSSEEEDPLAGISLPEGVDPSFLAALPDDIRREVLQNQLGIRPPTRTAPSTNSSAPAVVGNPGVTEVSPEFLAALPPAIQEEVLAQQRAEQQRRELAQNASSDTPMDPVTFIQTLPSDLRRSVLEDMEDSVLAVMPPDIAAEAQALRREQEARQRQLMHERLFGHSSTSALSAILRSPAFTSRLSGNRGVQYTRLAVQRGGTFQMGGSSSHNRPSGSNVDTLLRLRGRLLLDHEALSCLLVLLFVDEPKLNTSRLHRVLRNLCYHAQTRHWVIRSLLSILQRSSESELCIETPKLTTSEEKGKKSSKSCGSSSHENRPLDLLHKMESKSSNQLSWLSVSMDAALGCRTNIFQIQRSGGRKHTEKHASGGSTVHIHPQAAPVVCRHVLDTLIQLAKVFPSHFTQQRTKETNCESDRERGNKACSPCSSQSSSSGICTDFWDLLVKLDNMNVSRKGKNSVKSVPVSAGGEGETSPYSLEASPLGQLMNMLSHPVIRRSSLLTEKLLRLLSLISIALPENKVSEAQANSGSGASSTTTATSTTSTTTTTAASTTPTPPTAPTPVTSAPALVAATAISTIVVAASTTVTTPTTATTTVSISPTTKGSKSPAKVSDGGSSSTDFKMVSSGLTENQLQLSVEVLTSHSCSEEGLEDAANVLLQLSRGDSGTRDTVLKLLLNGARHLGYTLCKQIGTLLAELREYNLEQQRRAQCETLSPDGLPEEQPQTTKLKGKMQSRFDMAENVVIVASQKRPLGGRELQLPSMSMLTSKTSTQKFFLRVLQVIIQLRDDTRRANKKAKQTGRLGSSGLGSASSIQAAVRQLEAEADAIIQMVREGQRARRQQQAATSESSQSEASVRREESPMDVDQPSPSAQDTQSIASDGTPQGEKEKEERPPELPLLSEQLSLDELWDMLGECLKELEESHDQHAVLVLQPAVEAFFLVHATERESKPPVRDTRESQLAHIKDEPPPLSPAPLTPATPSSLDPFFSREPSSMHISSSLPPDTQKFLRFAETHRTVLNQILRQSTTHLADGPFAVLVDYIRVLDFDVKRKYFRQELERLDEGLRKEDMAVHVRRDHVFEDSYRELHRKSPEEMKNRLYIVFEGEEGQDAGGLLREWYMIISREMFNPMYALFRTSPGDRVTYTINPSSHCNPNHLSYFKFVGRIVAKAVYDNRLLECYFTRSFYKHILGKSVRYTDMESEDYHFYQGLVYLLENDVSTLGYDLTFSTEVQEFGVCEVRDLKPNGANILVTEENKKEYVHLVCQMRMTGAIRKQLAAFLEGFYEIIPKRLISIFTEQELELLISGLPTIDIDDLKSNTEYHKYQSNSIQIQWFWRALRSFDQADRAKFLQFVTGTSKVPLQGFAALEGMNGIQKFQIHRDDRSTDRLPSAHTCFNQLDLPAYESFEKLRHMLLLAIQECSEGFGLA
UniProt Q07820: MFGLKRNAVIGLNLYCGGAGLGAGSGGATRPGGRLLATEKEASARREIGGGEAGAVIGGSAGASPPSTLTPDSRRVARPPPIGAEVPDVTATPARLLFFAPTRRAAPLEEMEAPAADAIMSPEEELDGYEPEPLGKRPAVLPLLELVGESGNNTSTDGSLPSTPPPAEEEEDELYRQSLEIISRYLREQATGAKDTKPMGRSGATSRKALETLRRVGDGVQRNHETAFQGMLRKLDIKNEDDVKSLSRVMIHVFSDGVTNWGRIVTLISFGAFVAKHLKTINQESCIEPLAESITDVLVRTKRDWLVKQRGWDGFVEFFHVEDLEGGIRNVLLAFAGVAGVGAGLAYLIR
UniProt P54252: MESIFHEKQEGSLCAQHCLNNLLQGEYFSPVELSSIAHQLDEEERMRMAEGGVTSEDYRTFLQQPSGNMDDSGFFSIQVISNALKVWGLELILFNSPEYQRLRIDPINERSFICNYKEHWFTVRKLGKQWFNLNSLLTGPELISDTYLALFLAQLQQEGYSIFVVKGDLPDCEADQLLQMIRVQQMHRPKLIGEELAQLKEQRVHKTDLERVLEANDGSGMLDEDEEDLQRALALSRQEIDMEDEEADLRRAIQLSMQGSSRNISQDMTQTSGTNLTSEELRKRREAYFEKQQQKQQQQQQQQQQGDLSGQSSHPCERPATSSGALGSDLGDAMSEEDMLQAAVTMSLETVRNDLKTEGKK

T1: TurboID-tagged RNF10 (UniProt Q8N5U6)
T1 sequence: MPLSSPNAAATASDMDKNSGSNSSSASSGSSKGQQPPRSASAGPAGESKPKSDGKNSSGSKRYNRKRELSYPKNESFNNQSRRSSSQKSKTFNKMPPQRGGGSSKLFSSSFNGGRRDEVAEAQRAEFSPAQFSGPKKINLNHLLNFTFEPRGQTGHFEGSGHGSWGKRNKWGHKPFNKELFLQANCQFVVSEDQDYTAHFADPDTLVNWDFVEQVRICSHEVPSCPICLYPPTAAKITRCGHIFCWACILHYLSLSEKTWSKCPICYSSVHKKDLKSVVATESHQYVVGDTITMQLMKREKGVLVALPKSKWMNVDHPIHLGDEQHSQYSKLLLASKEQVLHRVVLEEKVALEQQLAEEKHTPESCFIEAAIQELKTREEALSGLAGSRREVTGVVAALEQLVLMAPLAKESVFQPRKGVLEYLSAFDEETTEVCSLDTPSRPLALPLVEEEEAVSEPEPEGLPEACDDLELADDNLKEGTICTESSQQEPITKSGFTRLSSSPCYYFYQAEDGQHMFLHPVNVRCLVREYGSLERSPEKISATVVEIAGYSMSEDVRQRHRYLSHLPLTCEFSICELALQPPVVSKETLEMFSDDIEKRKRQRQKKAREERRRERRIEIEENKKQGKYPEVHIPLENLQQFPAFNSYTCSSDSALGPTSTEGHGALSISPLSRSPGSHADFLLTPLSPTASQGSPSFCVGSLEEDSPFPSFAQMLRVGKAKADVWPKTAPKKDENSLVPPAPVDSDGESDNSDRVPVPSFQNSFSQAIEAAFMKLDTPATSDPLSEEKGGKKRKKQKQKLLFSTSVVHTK

B1: iRQC factor RIOK3 (protein, UniProt O14730 1-519)
chain: MDLVGVASPEPGTAAAWGPSKCPWAIPQNTISCSLADVMSEQLAKELQLEEEAAVFPEVAVAEGPFITGENIDTSSDLMLAQMLQMEYDREYDAQLRREEKKFNGDSKVSISFENYRKVHPYEDSDSSEDEVDWQDTRDDPYRPAKPVPTPKKGFIGKGKDITTKHDEVVCGRKNTARMENFAPEFQVGDGIGMDLKLSNHVFNALKQHAYSEERRSARLHEKKEHSTAEKAVDPKTRLLMYKMVNSGMLETITGCISTGKESVVFHAYGGSMEDEKEDSKVIPTECAIKVFKTTLNEFKNRDKYIKDDFRFKDRFSKLNPRKIIRMWAEKEMHNLARMQRAGIPCPTVVLLKKHILVMSFIGHDQVPAPKLKEVKLNSEEMKEAYYQTLHLMRQLYHECTLVHADLSEYNMLWHAGKVWLIDVSQSVEPTHPHGLEFLFRDCRNVSQFFQKGGVKEALSERELFNAVSGLNITADNEADFLAEIEALEKMNEDHVQKNGRKAASFLKDDGDPPLLYDE
B2: VCPIP1 (protein, UniProt Q96JH7 1-1222)
chain: MSQPPPPPPPLPPPPPPPEAPQTPSSLASAAASGGLLKRRDRRILSGSCPDPKCQARLFFPASGSVSIECTECGQRHEQQQLLGVEEVTDPDVVLHNLLRNALLGVTGAPKKNTELVKVMGLSNYHCKLLSPILARYGMDKQTGRAKLLRDMNQGELFDCALLGDRAFLIEPEHVNTVGYGKDRSGSLLYLHDTLEDIKRANKSQECLIPVHVDGDGHCLVHAVSRALVGRELFWHALRENLKQHFQQHLARYQALFHDFIDAAEWEDIINECDPLFVPPEGVPLGLRNIHIFGLANVLHRPIILLDSLSGMRSSGDYSATFLPGLIPAEKCTGKDGHLNKPICIAWSSSGRNHYIPLVGIKGAALPKLPMNLLPKAWGVPQDLIKKYIKLEEDGGCVIGGDRSLQDKYLLRLVAAMEEVFMDKHGIHPSLVADVHQYFYRRTGVIGVQPEEVTAAAKKAVMDNRLHKCLLCGALSELHVPPEWLAPGGKLYNLAKSTHGQLRTDKNYSFPLNNLVCSYDSVKDVLVPDYGMSNLTACNWCHGTSVRKVRGDGSIVYLDGDRTNSRSTGGKCGCGFKHFWDGKEYDNLPEAFPITLEWGGRVVRETVYWFQYESDSSLNSNVYDVAMKLVTKHFPGEFGSEILVQKVVHTILHQTAKKNPDDYTPVNIDGAHAQRVGDVQGQESESQLPTKIILTGQKTKTLHKEELNMSKTERTIQQNITEQASVMQKRKTEKLKQEQKGQPRTVSPSTIRDGPSSAPATPTKAPYSPTTSKEKKIRITTNDGRQSMVTLKSSTTFFELQESIAREFNIPPYLQCIRYGFPPKELMPPQAGMEKEPVPLQHGDRITIEILKSKAEGGQSAAAHSAHTVKQEDIAVTGKLSSKELQEQAEKEMYSLCLLATLMGEDVWSYAKGLPHMFQQGGVFYSIMKKTMGMADGKHCTFPHLPGKTFVYNASEDRLELCVDAAGHFPIGPDVEDLVKEAVSQVRAEATTRSRESSPSHGLLKLGSGGVVKKKSEQLHNVTAFQGKGHSLGTASGNPHLDPRARETSVVRKHNTGTDFSNSSTKTEPSVFTASSSNSELIRIAPGVVTMRDGRQLDPDLVEAQRKKLQEMVSSIQASMDRHLRDQSTEQSPSDLPQRKTEVVSSSAKSGSLQTGLPESFPLTGGTENLNTETTDGCVADALGAAFATRSKAQRGNSVEELEEMDSQDAEMTNTTEPMDHS
B3: HAPSTR1 (protein, UniProt Q14CZ0 1-275)
chain: MEERKEEGEAEIQEHGPEHWFSKWERQCLAEAEQDEQLPPELQEEAAAAAQPEHKQQKLWHLFQNSATAVAQLYKDRVCQQPGLSLWVPFQNAATAVTNLYKESVDTHQRSFDIGIQIGYQRRNKDVLAWVKKRRRTIRREDLISFLCGKVPPPRNSRAPPRLTVVSPNRATSTETSSSVETDLQPFREAIALHGLSGAMASISVRSSTPGSPTHVSSGSNASRRRNGLHDVDLNTFISEEMALHLDNGGTRKRTSAQCGDVITDSPTHKRNRMI

The molecules below were run against T1, TurboID-tagged RNF10 (assay: proximity labelling; TurboID-RNF10 in 293 Flp-In cells (24 h doxycycline), 100 uM biotin for 60 min at 37 °C; streptavidin-agarose enrichment from NP-40 lysate, DIA mass spectrometry; differential analysis against TurboID-eGFP controls of varied expression).

Molecule	binding
B1	binds

These molecules were tested against TurboID-HUWE1 (UniProt Q7Z6Z7) (assay: proximity labelling; TurboID-HUWE1 in 293T and HAP1 cells (PiggyBac, 24 h doxycycline), 100 uM biotin for 60 min; streptavidin-agarose enrichment, DIA mass spectrometry; differential analysis against several TurboID-eGFP controls of varied doxycycline induction time).

Molecule	binding
MCL1 (from UniProt Q07820 1-350)	binds
ATXN3 (from UniProt P54252 1-361)	binds
VCP (from UniProt P55072 1-806)	binds
B2	binds
B3	binds
